Laboratory results: PubChem BioAssay AID504774 (Drosophila RNAi Screening Center, 2011)
Screen: 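Genes required for cells to withstand methyl methanesulphonate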 (primary screen). Cell system: Drosophila Kc167 cells. Knock-down reagent: long dsRNA against Drosophila genes, about 0.25 µg dsRNA per well. Duration: about 6 days: 3 days knock-down, then 3 days with or without MMS. Treatment: methyl methanesulphonate 0.004% (w/v) for 3 days after knock-down. Measured: 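ATP-dependent luminescence as a measure of live cells in MMS-exposed wells, quantile normalised within each plate, with replicate values also given as a mean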. Scale: mean viability with MMS and viability with MMS: higher = more surviving cells after MMS.
The screen tested about 23,000 reagents; shown is a random part of those that have a named target and a result. 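Values are quantile-normalised luminescence on an arbitrary scale; higher means more cells surviving MMS.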 A plus sign joins genes that one reagent is predicted to hit.

target,PubChem SID,mean viability with MMS,"viability with MMS, replicate 1","viability with MMS, replicate 2"
salto (GeneID 36332),SID104186083,3.61e6,4.16e6,4.04e6
CCT7 (GeneID 41054),SID104196202,3.29e6,3.82e6,3.71e6
cdm (GeneID 42171),SID104196005,3.57e6,4.03e6,4.06e6
cni (GeneID 34967),SID104183304,3.34e6,3.81e6,3.74e6
CG31751 (GeneID 35118),SID104182256,3.49e6,3.92e6,4.00e6
CG31751 (GeneID 35118),SID104182257,3.40e6,3.92e6,3.75e6
CG2694 (GeneID 31260),SID104198262,3.62e6,4.03e6,4.17e6
Set2 (GeneID 32301),SID104199557,3.18e6,3.71e6,3.41e6
Vps16A (GeneID 41107),SID104196214,3.32e6,3.80e6,3.82e6
Adgf-D (GeneID 41679),SID104196313,3.54e6,4.12e6,3.92e6
CSN1b (GeneID 40063),SID104190900,3.37e6,3.79e6,3.82e6
CG13838 (GeneID 42719),SID104194480,3.42e6,4.07e6,4.01e6
CAHbeta (GeneID 41070),SID104194241,3.53e6,4.05e6,3.95e6
Sec63 (GeneID 38819),SID104190794,3.52e6,3.76e6,3.63e6
CG12069 (GeneID 43643),SID104194262,3.37e6,3.76e6,3.80e6
NijC (GeneID 41568),SID104194643,3.50e6,3.98e6,3.98e6
Tsf3 (GeneID 36800),SID104186641,3.47e6,3.86e6,4.01e6
app (GeneID 39399),SID104188951,3.51e6,3.96e6,4.03e6
app (GeneID 39399),SID104190038,3.41e6,3.79e6,3.91e6
app (GeneID 39399),SID104190318,3.45e6,3.97e6,3.85e6
Cyp6d2 (GeneID 37594),SID104184398,3.74e6,4.08e6,4.01e6
CG32576 + UQCR-14,SID104199662,3.33e6,3.76e6,3.70e6
CG6048 (GeneID 31528),SID104198190,3.55e6,4.12e6,3.95e6
CG4306 (GeneID 40017),SID104190201,3.58e6,4.05e6,4.06e6
CG12362 (GeneID 39193),SID104189676,3.45e6,4.07e6,3.75e6
CG1648 (GeneID 36009),SID104186402,3.67e6,4.24e6,4.09e6
CR40441 (GeneID 10178882),SID104202274,3.64e6,4.01e6,4.17e6
CG32147 (GeneID 251690),SID104189138,3.60e6,4.18e6,3.98e6
CG18294 + 825-Oak + CG32214 + 2 more,SID104201746,3.63e6,4.05e6,4.12e6
dachs (GeneID 34179),SID104181864,3.24e6,3.61e6,3.61e6
dachs (GeneID 34179),SID104181983,3.49e6,4.06e6,3.85e6
CG14736 (GeneID 41466),SID104194748,3.46e6,3.95e6,3.94e6
danr (GeneID 43020),SID104194443,3.51e6,4.00e6,3.93e6
CG15044 (GeneID 32834),SID104199412,3.37e6,3.79e6,3.80e6
CG15044 (GeneID 32834),SID104201151,3.42e6,3.98e6,3.83e6
Nrx-1 (GeneID 42646),SID104195976,3.64e6,4.09e6,4.12e6
WDR79 (GeneID 33865),SID104182951,3.38e6,3.85e6,3.70e6
CG15425 (GeneID 33630),SID104180232,3.60e6,4.01e6,4.11e6
Rab23 (GeneID 40701),SID104192097,3.63e6,4.20e6,4.02e6
lectin-37Da (GeneID 3346222),SID104183070,3.65e6,4.05e6,3.94e6
lectin-37Da (GeneID 3346222),SID104202107,3.63e6,4.10e6,4.08e6
CG7924 (GeneID 39574),SID104190723,3.71e6,4.25e6,4.09e6
Klp59D (GeneID 37674),SID104183910,3.65e6,4.28e6,3.99e6
Or59a (GeneID 37711),SID104184423,3.60e6,4.00e6,4.17e6
mRpL15 (GeneID 40261),SID104191563,3.73e6,4.15e6,4.23e6
Torsin (GeneID 31399),SID104198362,1.70e6,4.01e6,3.79e6
Zif (GeneID 40795),SID104192306,3.42e6,3.85e6,3.86e6
RFeSP (GeneID 44390),SID104180494,3.43e6,3.83e6,3.91e6
CG12490 (GeneID 37623),SID104183915,3.70e6,4.01e6,4.35e6
Stlk (GeneID 3355135),SID104202077,3.60e6,4.05e6,4.08e6
CG12865 (retired record) (GeneID 36633),SID104185997,3.71e6,4.13e6,4.17e6
betaNACtes4 (GeneID 32389),SID104199593,3.69e6,4.12e6,4.18e6
CG1492 (GeneID 32164),SID104199397,3.40e6,3.88e6,3.86e6
CG5196 (GeneID 41522),SID104195527,3.57e6,4.00e6,4.09e6
Syngr (GeneID 36533),SID104185795,3.71e6,4.28e6,4.25e6
Lst8 (GeneID 31903),SID104198054,3.67e6,4.51e6,4.25e6
HUWE1 (GeneID 32510),SID104199881,3.64e6,4.13e6,4.09e6
nsr (GeneID 37577),SID104184219,3.58e6,4.03e6,4.32e6
nsr (GeneID 37577),SID104202165,3.55e6,4.03e6,4.02e6
CG32050 (retired record) (GeneID 39154),SID104189965,3.51e6,3.96e6,4.00e6
CG34006 (retired record) (GeneID 3885652),SID104193609,3.43e6,3.88e6,3.88e6
Tengl2 (GeneID 318044),SID104201578,3.53e6,4.04e6,3.97e6
CR12798 (GeneID 10178819),SID104200870,3.72e6,4.15e6,4.20e6
Cyp4d8 (GeneID 38841),SID104190923,3.56e6,4.05e6,4.04e6
CG32236 (GeneID 249170),SID104187909,3.42e6,3.90e6,3.83e6
CG31279 (GeneID 318657),SID104192950,3.41e6,3.89e6,3.85e6
Spt-I (GeneID 36448),SID104186652,3.49e6,3.95e6,3.91e6
Cyp6a15Psi (GeneID 3772535),SID104187169,3.48e6,3.95e6,3.97e6
Cpr65Ay (GeneID 5740348),SID104188588,3.43e6,3.92e6,3.83e6
fs(1)Yb (GeneID 31262),SID104198569,3.59e6,4.22e6,3.92e6
CG31788 (GeneID 318942),SID104181422,3.42e6,3.84e6,3.89e6
AP-2mu (GeneID 42642),SID104193882,3.65e6,4.07e6,4.16e6
CG14915 (GeneID 34536),SID104182191,3.65e6,4.05e6,4.23e6
TH1 (GeneID 32607),SID104200081,3.49e6,4.07e6,3.59e6
CG14182 (GeneID 40181),SID104189973,3.53e6,3.90e6,4.08e6
DIP-eta (GeneID 33793),SID104182134,3.54e6,3.95e6,4.06e6
swaPsi (GeneID 3771807),SID104201366,3.56e6,4.07e6,4.01e6
CG13891 (GeneID 38066),SID104188153,3.59e6,4.03e6,4.08e6
CG15482 (GeneID 34717),SID104182284,3.63e6,4.11e6,4.11e6
GlnRS (GeneID 45786),SID104193932,3.34e6,3.81e6,3.79e6
Grx1 (GeneID 40053),SID104190519,3.31e6,3.68e6,3.74e6
serp (GeneID 40150),SID104190827,3.61e6,4.13e6,4.06e6
serp (GeneID 40150),SID104190828,3.65e6,4.21e6,4.03e6
ctp (GeneID 31405),SID104198550,3.63e6,3.98e6,4.05e6
CG14079 (GeneID 40086),SID104189875,3.65e6,4.21e6,4.03e6
CG30479 (GeneID 36631),SID104186527,3.71e6,4.49e6,4.06e6
CG42337 (GeneID 40335),SID104191478,3.45e6,3.85e6,3.95e6
CG42337 (GeneID 40335),SID104191479,2.91e6,3.54e6,3.55e6
CG42337 (GeneID 40335),SID104202456,3.54e6,3.86e6,4.21e6
